Measured values reported in the supplement of paper PMC12067093, “Discovery and optimisation of a covalent ligand for TRIM25 and its application to targeted protein ubiquitination” (Chemical Science, 2025).
Some of the results follow.

Protein sequences, listed by entry. Tags and fused reporters are not part of them. Lines headed by an entry give the natural chain unless they say otherwise; changes in a name come on top.
UniProt O00244: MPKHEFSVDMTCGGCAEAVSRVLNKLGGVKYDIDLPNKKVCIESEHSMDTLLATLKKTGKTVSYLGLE
UniProt O75882: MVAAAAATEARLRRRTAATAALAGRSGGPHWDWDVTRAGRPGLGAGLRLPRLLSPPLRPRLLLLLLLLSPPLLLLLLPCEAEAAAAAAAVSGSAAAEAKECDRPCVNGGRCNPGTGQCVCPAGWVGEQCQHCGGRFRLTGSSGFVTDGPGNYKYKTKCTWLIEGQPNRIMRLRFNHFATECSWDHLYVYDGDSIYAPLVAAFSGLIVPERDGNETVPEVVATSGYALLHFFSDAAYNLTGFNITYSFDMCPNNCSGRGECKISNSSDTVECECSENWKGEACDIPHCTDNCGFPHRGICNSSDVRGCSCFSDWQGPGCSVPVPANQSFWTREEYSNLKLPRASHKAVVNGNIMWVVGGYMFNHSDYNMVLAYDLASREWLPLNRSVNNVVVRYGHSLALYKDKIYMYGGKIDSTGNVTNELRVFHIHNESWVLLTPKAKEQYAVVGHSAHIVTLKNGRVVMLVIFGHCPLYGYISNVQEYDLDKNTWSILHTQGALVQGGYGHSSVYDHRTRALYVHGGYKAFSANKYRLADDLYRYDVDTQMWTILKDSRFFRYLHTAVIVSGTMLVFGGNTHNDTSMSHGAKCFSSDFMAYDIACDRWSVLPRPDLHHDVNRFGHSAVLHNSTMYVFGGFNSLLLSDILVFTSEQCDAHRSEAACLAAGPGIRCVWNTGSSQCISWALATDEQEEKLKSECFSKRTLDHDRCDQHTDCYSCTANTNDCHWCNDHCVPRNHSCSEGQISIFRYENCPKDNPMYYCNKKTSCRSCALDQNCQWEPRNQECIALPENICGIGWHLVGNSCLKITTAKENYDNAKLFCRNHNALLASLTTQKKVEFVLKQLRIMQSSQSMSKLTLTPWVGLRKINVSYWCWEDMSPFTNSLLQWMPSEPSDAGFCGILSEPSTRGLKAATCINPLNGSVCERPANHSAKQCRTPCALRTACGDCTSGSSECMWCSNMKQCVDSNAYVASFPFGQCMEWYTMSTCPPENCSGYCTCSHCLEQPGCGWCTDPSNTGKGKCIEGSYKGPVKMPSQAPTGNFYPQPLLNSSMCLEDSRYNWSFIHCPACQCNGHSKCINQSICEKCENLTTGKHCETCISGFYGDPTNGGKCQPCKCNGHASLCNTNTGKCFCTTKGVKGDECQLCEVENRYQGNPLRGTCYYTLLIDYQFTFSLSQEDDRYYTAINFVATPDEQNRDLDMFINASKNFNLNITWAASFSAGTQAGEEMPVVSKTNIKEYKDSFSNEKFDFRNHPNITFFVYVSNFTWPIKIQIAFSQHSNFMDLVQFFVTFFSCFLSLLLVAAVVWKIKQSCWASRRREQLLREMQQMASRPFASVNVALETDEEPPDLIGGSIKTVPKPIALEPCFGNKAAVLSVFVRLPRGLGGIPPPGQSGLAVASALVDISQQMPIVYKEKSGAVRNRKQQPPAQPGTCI
UniProt Q93084: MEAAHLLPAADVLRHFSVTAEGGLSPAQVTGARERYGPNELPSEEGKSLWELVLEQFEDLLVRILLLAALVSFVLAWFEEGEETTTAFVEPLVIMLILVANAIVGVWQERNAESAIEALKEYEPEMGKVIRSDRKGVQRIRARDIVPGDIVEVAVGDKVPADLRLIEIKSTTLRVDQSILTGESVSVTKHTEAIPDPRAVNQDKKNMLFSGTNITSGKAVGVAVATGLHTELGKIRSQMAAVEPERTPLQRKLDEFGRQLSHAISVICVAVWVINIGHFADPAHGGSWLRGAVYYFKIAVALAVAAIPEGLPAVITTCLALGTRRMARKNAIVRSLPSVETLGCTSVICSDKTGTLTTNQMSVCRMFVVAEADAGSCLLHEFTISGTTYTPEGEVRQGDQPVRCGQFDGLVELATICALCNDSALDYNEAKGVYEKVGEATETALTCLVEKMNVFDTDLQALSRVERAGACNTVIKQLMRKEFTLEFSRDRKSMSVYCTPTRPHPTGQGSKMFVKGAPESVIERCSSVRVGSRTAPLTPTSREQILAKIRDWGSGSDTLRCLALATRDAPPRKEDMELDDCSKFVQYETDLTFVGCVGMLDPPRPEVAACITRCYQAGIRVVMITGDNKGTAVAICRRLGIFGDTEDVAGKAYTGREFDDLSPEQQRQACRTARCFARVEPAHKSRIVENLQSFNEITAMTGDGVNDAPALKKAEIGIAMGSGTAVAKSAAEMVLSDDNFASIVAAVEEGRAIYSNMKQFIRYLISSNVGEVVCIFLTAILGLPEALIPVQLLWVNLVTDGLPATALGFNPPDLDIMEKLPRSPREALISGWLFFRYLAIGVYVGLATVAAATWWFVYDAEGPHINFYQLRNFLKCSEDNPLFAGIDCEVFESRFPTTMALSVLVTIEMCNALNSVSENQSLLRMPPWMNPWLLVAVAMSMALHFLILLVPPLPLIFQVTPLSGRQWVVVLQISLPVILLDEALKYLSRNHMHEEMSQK
UniProt Q13315: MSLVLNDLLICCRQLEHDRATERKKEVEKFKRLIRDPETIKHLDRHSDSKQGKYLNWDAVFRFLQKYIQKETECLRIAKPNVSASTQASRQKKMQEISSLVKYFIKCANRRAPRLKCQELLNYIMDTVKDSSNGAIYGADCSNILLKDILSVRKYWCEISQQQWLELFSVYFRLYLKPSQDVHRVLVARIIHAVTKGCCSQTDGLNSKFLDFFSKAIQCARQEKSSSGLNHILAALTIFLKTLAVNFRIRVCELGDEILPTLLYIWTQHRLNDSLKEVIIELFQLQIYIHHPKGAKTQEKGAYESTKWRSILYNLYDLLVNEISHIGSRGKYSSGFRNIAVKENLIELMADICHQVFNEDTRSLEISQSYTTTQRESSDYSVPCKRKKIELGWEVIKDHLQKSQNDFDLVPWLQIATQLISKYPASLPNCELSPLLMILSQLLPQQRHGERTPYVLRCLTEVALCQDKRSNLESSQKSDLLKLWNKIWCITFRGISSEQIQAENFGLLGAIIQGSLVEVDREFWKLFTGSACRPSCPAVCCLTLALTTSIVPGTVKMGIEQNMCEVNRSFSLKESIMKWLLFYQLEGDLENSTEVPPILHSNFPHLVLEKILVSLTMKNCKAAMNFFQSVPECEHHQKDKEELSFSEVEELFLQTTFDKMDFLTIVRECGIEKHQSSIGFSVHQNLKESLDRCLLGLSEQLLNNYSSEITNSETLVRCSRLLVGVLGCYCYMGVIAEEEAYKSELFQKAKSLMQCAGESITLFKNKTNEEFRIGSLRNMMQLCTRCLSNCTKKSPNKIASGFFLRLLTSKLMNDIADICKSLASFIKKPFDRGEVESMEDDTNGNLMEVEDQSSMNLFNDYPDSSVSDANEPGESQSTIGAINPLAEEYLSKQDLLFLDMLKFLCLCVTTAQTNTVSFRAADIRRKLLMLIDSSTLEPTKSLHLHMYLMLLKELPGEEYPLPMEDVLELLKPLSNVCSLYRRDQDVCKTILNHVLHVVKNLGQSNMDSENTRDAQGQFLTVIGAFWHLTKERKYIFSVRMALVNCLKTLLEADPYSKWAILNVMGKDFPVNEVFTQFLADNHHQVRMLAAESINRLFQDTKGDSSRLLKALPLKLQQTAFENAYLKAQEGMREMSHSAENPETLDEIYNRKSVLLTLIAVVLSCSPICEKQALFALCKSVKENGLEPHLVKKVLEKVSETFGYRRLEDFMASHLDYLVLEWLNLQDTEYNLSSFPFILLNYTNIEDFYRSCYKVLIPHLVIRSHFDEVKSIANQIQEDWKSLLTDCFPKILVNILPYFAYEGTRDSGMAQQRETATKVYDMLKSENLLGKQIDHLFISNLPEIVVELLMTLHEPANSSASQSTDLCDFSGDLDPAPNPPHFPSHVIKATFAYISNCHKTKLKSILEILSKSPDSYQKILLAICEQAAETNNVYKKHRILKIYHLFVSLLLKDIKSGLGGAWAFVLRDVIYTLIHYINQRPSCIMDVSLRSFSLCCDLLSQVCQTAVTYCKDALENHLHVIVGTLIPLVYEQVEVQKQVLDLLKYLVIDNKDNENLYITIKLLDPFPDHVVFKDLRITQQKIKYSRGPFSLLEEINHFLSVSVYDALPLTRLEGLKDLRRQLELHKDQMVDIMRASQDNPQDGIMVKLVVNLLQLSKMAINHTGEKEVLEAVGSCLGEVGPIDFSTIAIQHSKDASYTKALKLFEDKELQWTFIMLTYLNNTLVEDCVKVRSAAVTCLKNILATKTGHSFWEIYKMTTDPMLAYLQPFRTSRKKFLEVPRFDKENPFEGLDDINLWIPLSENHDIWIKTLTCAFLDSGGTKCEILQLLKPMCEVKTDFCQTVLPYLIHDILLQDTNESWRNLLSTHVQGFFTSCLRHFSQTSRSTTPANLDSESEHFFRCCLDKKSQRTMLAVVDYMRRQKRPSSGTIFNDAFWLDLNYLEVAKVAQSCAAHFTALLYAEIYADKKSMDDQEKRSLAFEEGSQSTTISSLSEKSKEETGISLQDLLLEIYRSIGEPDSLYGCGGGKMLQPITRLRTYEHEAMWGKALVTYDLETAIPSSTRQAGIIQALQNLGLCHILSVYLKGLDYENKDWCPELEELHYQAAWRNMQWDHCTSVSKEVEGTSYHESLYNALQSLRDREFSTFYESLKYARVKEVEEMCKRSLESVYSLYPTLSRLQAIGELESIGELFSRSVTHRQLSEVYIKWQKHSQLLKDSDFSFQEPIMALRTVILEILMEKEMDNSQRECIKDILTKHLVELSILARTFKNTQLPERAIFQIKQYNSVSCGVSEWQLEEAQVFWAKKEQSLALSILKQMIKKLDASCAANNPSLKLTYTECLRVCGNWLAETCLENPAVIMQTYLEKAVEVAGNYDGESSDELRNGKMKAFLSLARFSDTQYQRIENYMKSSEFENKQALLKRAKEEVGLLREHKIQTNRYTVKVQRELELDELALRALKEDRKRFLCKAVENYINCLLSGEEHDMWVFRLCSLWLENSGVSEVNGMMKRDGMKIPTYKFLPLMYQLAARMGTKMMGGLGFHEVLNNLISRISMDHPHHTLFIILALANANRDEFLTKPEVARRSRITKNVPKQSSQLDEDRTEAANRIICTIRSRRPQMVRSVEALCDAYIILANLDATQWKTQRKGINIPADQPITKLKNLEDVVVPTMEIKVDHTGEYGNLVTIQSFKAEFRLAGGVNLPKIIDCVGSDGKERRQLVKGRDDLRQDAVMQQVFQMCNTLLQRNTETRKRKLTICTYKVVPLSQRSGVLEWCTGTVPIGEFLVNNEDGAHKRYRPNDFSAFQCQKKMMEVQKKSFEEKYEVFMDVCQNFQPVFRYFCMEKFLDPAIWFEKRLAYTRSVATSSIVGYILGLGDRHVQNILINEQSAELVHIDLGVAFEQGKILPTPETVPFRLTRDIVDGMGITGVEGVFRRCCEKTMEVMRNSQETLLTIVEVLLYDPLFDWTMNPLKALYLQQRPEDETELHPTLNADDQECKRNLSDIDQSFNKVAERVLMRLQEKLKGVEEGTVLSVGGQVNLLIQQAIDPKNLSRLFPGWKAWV
UniProt P98194: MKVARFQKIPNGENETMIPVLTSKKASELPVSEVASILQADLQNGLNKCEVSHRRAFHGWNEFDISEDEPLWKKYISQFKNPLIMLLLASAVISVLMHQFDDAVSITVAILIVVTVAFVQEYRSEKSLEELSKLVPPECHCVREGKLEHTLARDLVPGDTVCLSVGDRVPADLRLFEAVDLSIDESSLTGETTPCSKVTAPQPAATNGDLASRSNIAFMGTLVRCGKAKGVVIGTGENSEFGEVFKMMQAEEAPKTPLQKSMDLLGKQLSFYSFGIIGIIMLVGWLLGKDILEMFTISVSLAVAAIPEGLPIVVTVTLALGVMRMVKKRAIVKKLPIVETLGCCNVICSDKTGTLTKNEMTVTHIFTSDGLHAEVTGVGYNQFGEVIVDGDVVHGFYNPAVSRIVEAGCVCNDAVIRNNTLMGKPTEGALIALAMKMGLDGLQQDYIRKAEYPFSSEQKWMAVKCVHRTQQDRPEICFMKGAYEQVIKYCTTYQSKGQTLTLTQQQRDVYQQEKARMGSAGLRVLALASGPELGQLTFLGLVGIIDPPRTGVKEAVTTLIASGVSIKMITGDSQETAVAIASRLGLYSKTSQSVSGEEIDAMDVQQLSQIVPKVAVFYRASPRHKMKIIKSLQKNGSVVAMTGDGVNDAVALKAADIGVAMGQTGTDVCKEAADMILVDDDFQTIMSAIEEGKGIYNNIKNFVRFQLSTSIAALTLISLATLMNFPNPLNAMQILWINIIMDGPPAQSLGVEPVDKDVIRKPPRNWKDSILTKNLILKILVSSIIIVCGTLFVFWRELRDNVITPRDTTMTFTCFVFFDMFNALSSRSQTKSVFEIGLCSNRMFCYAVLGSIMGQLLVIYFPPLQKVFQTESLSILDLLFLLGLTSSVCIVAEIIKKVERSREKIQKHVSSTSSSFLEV
UniProt P56134: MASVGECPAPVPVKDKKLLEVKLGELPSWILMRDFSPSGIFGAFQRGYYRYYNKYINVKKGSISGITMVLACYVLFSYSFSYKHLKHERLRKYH

Compound: Cc1cc(ccc1-c1ccccc1)C(=O)N1CCCN(CC1)C(=O)CCl [compound 10]
Assay: probe-labelled cysteine peptide fold change vs DMSO (competition) (log2 fold change); higher = less target engagement (more negative = stronger competition)
Details: THP-1, incubation time: 4 h
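Further: competitive profiling in live THP-1 cells: cysteine peptides tagged with an iodoacetamide desthiobiotin (IA-DTB) probe, intensity after compound treatment relative to DMSO-treated cells.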

Target | probe-labelled cysteine peptide fold change (10 µM) | probe-labelled cysteine peptide fold change (50 µM)
ATOX1_O00244_41_VCIESEHSMDTLLATLK (UniProt O00244) | 0.31 | 0.0516
ASCC3_Q8N3C0_208_FLNEHLQEACTPELKPVEK (UniProt Q8N3C0) | -0.196 | -0.22
ATRX_P46100_1844_MTSIQCK (UniProt P46100) | 0.0113 | 0.0117
ATP1B3_P54709_250_EVTVECK (UniProt P54709) | -0.143 | -0.00337
ASPSCR1_Q9BZE9_109_LQDSFCSGQTLWELLSHFPQIR (UniProt Q9BZE9) | 0.0375 | -0.373
ATP8B4_Q8TF62_734_NFSNGHVVCEK (UniProt Q8TF62) | -0.24 | -0.721
ATF2_P15336_418_DCPVTAMQK (UniProt P15336) | -0.418 | -0.797
ATP6V0A2_Q9Y487_330_CLIAEVWCPEADLQDLRR (UniProt Q9Y487) | -0.0967 | -0.0893
ATP6V0A2_Q9Y487_323+330_CLIAEVWCPEADLQDLRR (UniProt Q9Y487) | 0.0292 | -0.302
ATP2B1_P20020_463+473_HLDACETMGNATAICSDK (UniProt P20020) | -0.241 | 0.05
ASAP1_Q9ULH1_373_LNLLTCQVKPNAEDK (UniProt Q9ULH1) | 0.259 | 0.258
ATP6V1B2_P21281_258_SDFEENGSMDNVCLFLNLANDPTIER (UniProt P21281) | 0.0783 | -0.174
ATRN_O75882_101_ECDRPCVNGGR (UniProt O75882) | -0.0415 | -0.118
ATP2A3_Q93084_581_KEDMELDDCSK (UniProt Q93084) | -0.221 | -0.107
ATG12_O94817_134_LVLHYCK (UniProt O94817) | 0.129 | 0.11
ATP2A2_P16615_875_VSFYQLSHFLQCK (UniProt P16615) | -0.0468 | 0.206
ATM_Q13315_2323_KLDASCAANNPSLK (UniProt Q13315) | -0.12 | -0.242
ARRB2_P32121_270_CPVAQLEQDDQVSPSSTFCK (UniProt P32121) | 0.16 | 0.348
ATP13A1_Q9HD20_667_GAPETLHSMFSQCPPDYHHIHTEISR (UniProt Q9HD20) | -0.00203 | 0.055
ATM_Q13315_2092_DWCPELEELHYQAAWR (UniProt Q13315) | -0.0425 | -0.0794
ATP6V0D1_P61421_335_NIVWIAECIAQR (UniProt P61421) | 0.155 | 0.16

Target | probe-labelled cysteine peptide fold change (10 µM) | probe-labelled cysteine peptide fold change (50 µM)
ATRN_O75882_657_SEAACLAAGPGIR (UniProt O75882) | -0.107 | 0.00071
ATP6V0A1_Q93050_58_CEEMDRK (UniProt Q93050) | 0.00118 | 0.055
ARRB2_P32121_126_KLGQHAHPFFFTIPQNLPCSVTLQPGPEDTGK (UniProt P32121) | -0.12 | -0.146
ATF7_P17544_61_NCEEVGLFNELASSFEHEFK (UniProt P17544) | 0.194 | 0.0458
ATAD1_Q8NBU5_229_AQFMSLWDGLDTDHSCQVIVMGATNRPQDLDSAIMR (UniProt Q8NBU5) | 0.117 | 0.088
ATM_Q13315_1821_CEILQLLK (UniProt Q13315) | -0.358 | -0.124
ARV1_Q9H2C2_30_GNVDGVAATPTAASASCQYR (UniProt Q9H2C2) | 0.067 | 0.00307
ATG16L2_Q8NAA4_319_YQIIPVCVAAR (UniProt Q8NAA4) | -0.12 | -0.241
ATXN10_Q9UBB4_134_CGLQFLGNIASR (UniProt Q9UBB4) | 0.169 | 0.631
ATP1A1_P05023_249_NIAFFSTNCVEGTAR (UniProt P05023) | 0.0103 | -0.0548
ATM_Q13315_2991_ALYLQQRPEDETELHPTLNADDQECK (UniProt Q13315) | -0.396 | -0.796
ATP6V1B2_P21281_112_TSCEFTGDILR (UniProt P21281) | -0.0801 | 0.191
ATL3_Q6DD88_371_DIYYNNMEEVCGGEK (UniProt Q6DD88) | -0.0162 | 0.0859
ATG13_O75143_339_THCAATPSSSEDTETVSNSSEGR (UniProt O75143) | -0.397 | -0.299
ATP6V0A2_Q9Y487_58_RCEELER (UniProt Q9Y487) | -0.446 | 0.223
ATP5PO_P48047_141_GEVPCTVTSASPLEEATLSELK (UniProt P48047) | 0.0624 | 0.273
ATP13A1_Q9HD20_648_LGSTDLCYIAAVK (UniProt Q9HD20) | -0.103 | 0.0143
ATP11C_Q8NB49_214_AAIECEQPQPDLYK (UniProt Q8NB49) | -0.0919 | 0.0245
ATP5S_Q99766_111_IQAIDATDSCIMSIGFDHMEGLEHVEK (UniProt Q99766) | -0.0574 | -0.615
ATG2B_Q96BY7_1750_KSPGADVTCSLPR (UniProt Q96BY7) | -0.145 | -0.627
ATP2A2_P16615_471_ANACNSVIK (UniProt P16615) | -0.0995 | -0.102

Target | probe-labelled cysteine peptide fold change (10 µM) | probe-labelled cysteine peptide fold change (50 µM)
ATP1B3_P54709_191_IDCVSK (UniProt P54709) | -0.102 | 0.0857
ATF7IP_Q6VMQ6_78_DKEEVNGIEEICFDPEGSK (UniProt Q6VMQ6) | -0.296 | 0.0547
ATP5F1A_P25705_244_LYCIYVAIGQK (UniProt P25705) | -0.468 | 0.438
ATAD2_Q6PL18_1388_MEQEVENFSCSR (UniProt Q6PL18) | 0.0488 | -0.0356
ATAD1_Q8NBU5_137_GVLLYGPPGCGK (UniProt Q8NBU5) | -0.015 | 0.109
ATP6V0D1_P61421_244_LFPHCGR (UniProt P61421) | -0.0884 | 0.11
ATRAID_Q6UW56_52_VAFYCK (UniProt Q6UW56) | 0.000745 | 0.172
ATP2C1_P98194_411_IVEAGCVCNDAVIR (UniProt P98194) | 0.122 | 0.0199
ATP2A3_Q93084_498_SMSVYCTPTRPHPTGQGSK (UniProt Q93084) | 0.115 | -0.0619
ATP13A1_Q9HD20_574_ALASCHSLMQLDDGTLVGDPLEK (UniProt Q9HD20) | 0.341 | 0.204
ASH2L_Q9UBL3_581_SCTVSINFGPCFK (UniProt Q9UBL3) | -0.0421 | 0.0485
ARSB_P15848_117+121_TGLQHQIIWPCQPSCVPLDEK (UniProt P15848) | -0.126 | 0.189
ATL2_Q8NHH9_59_KPCPVQIVLAHEDDHNFELDEEALEQILLQEHIR (UniProt Q8NHH9) | -0.148 | 0.162
ATG5_Q9H1Y0_115_DLLHCPSK (UniProt Q9H1Y0) | -0.167 | -0.0605
ASH1L_Q9NR48_157_KADDVAAIECQSEEVIR (UniProt Q9NR48) | -0.535 | -0.127
ASCC3_Q8N3C0_1283_WLGAEAVCIINFQHLILPER (UniProt Q8N3C0) | 0.196 | 0.705
ATP6V0A1_Q93050_58_RCEEMDR (UniProt Q93050) | 0.102 | 0.183
ASAP1_Q9ULH1_373_LNLLTCQVKPNAEDKK (UniProt Q9ULH1) | 0.118 | -0.248
ATP5MF_P56134_7_ASVGECPAPVPVK (UniProt P56134) | -0.371 | -0.182
ASPHD2_Q6ICH7_200_NFQTILCEFETLYK (UniProt Q6ICH7) | -0.0155 | -0.283
ASMTL_O95671_333_VDASACGMER (UniProt O95671) | -0.0682 | -0.332

Reprinted at random: 2 entries already listed, in no set order.
Target | probe-labelled cysteine peptide fold change (10 µM) | probe-labelled cysteine peptide fold change (50 µM)
ASPHD2_Q6ICH7_200_NFQTILCEFETLYK (UniProt Q6ICH7) | -0.0155 | -0.283
ATP5MF_P56134_7_ASVGECPAPVPVK (UniProt P56134) | -0.371 | -0.182

Next results:

Target | probe-labelled cysteine peptide fold change (10 µM) | probe-labelled cysteine peptide fold change (50 µM)
ATP6V1G1_O75348_69_GSCSTEVEK (UniProt O75348) | -0.212 | -0.663
ATP6V1H_Q9UI12_312_QEYALAMIQCK (UniProt Q9UI12) | 0.00511 | 0.175
ASNA1_O43681_53_TTCSCSLAVQLSK (UniProt O43681) | 0.0248 | -0.246
ATIC_P31939_325_MSSFGDFVALSDVCDVPTAK (UniProt P31939) | -0.0848 | 0.0795
ASXL2_Q76L83_1225_ETLSTSDCLASK (UniProt Q76L83) | -0.081 | -0.199
ATM_Q13315_1396_ATFAYISNCHK (UniProt Q13315) | -1.94 | -2.52
ATOX1_O00244_41_KVCIESEHSMDTLLATLK (UniProt O00244) | 0.317 | -0.11
ATR_Q13535_2497_HGENILFDSLTGECVHVDFNCLFNK (UniProt Q13535) | 0.328 | 0.4
ATP6V1B2_P21281_162_GPVVLAEDFLDIMGQPINPQCR (UniProt P21281) | 0.109 | 0.268
ASXL2_Q76L83_827_ATATVASVSHPQGPSSCR (UniProt Q76L83) | -0.00999 | 0.0852
ASPM_Q8IZT6_441_IPECQGSK (UniProt Q8IZT6) | -0.0773 | -0.131
ATM_Q13315_2801_YRPNDFSAFQCQK (UniProt Q13315) | -0.0922 | -0.0782
ASNSD1_Q9NWL6_378_CEIPSEEFSK (UniProt Q9NWL6) | -0.287 | -0.0783
ATRX_P46100_1718_ALVDPGPDFVVCDEGHILK (UniProt P46100) | 0.0511 | 0.122
ATAD2_Q6PL18_463_GCLFYGPPGTGK (UniProt Q6PL18) | -0.0361 | 0.111
ATP6V1B2_P21281_162_VFNGSGKPIDRGPVVLAEDFLDIMGQPINPQCR (UniProt P21281) | -0.249 | -0.147
ATP13A1_Q9HD20_755_VVMITGDNPLTACHVAQELHFIEK (UniProt Q9HD20) | 0.0541 | 0.126
ATM_Q13315_2753_LTICTYK (UniProt Q13315) | 0.0277 | -0.0362
ATRX_P46100_1814_AHILYEMLAGCVQR (UniProt P46100) | 0.0558 | 0.123
ATP2A3_Q93084_471_AGACNTVIK (UniProt Q93084) | -0.0334 | -0.0279
ATIC_P31939_575_VVIEACDELGIILAHTNLR (UniProt P31939) | 0.103 | 0.126

An excerpt of these results, in markdown.

| Target | probe-labelled cysteine peptide fold change (10 µM) | probe-labelled cysteine peptide fold change (50 µM) |
| --- | --- | --- |
| ASAP1_Q9ULH1_373_LNLLTCQVKPNAEDK (UniProt Q9ULH1) | 0.259 | 0.258 |
| ATP2C1_P98194_411_IVEAGCVCNDAVIR (UniProt P98194) | 0.122 | 0.0199 |
